The target in test [1] is T1, Flag-tagged NHERF1 R153Q mutant (human) (UniProt O14745).
T1 sequence: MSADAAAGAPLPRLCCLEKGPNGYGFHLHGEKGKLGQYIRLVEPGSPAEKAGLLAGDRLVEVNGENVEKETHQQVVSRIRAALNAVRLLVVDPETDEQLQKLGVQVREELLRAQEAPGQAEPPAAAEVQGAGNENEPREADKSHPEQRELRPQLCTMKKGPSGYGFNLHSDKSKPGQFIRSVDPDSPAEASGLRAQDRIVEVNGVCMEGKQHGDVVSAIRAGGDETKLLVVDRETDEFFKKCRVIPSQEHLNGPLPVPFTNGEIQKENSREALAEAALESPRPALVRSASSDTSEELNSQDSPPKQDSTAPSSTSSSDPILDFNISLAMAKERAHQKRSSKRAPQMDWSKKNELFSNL
The test can be described thus: co-IP; HeLa cells co-transfected with GFP-NPT2a and Flag-NHERF1 (wild type or mutant); Flag-NHERF1 immunoprecipitated with anti-Flag antibody, immunoprecipitates probed with anti-GFP on Western blot. (In general: Immunoblotting shows a protein as a band on a membrane.)

The target in test [2] is T2, Flag-tagged NHERF1 E225K mutant (human) (UniProt O14745).
T2 sequence: T1 sequence with Q153R, E225K
Described as above.

Numbering of substitutions follows the chain as printed. These are yes or no findings as the source states them, for the method shown. In cells and extracts the contact can be indirect. Some binding calls cover weakened binding; strength is not graded here. Where a sequence is shown, tags or fusion partners need not be part of it.

B1: GFP-tagged NPT2a (type 2a sodium-phosphate cotransporter) (protein, UniProt Q06495 1-639)
chain: MLSYGERLGSPAVSPLPVRGGHVMRGTAFAYVPSPQVLHRIPGTSAYAFPSLGPVALAEHTCPCGEVLERHEPLPAKLALEEEQKPESRLVPKLRQAGAMLLKVPLMLTFLYLFVCSLDMLSSAFQLAGGKVAGDIFKDNAILSNPVAGLVVGILVTVLVQSSSTSTSIIVSMVSSGLLEVSSAIPIIMGSNIGTSVTNTIVALMQAGDRTDFRRAFAGATVHDCFNWLSVLVLLPLEAATGYLHHITRLVVASFNIHGGRDAPDLLKIITEPFTKLIIQLDESVITSIATGDESLRNHSLIQIWCHPDSLQAPTSMSRAEANSSQTLGNATMEKCNHIFVDTGLPDLAVGLILLAGSLVLLCTCLILLVKMLNSLLKGQVAKVIQKVINTDFPAPFTWVTGYFAMVVGASMTFVVQSSSVFTSAITPLIGLGVISIERAYPLTLGSNIGTTTTAILAALASPREKLSSAFQIALCHFFFNISGILLWYPVPCTRLPIRMAKALGKRTAKYRWFAVLYLLVCFLLLPSLVFGISMAGWQVMVGVGTPFGALLAFVVLINVLQSRSPGHLPKWLQTWDFLPRWMHSLKPLDHLITRATLCCARPEPRSPPLPPRVFLEELPPATPSPRLALPAHHNATRL
Take B1: the binding result in test [1] and in test [2] was “binds” throughout.
